# Measurements taken from the supplement of paper PMC12823440, “Inhibitors supercharge kinase turnover through native proteolytic circuits” (Nature, 2025).
# By UniProt entry, the sequences of proteins in these tests, tags left out. Where a name states a change or a piece, a line headed by the entry shows the natural chain unless it says otherwise.
# UniProt P28482, whole entry: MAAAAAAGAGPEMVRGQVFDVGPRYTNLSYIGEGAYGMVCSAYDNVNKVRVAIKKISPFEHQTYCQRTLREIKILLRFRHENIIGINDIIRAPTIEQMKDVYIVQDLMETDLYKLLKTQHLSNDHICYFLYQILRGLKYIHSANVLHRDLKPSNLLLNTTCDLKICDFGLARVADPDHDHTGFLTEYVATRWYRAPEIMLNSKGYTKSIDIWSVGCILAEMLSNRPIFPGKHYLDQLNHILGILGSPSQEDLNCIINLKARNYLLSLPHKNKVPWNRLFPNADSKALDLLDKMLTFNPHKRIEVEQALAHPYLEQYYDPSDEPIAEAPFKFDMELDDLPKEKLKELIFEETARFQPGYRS
# UniProt P31152, whole entry: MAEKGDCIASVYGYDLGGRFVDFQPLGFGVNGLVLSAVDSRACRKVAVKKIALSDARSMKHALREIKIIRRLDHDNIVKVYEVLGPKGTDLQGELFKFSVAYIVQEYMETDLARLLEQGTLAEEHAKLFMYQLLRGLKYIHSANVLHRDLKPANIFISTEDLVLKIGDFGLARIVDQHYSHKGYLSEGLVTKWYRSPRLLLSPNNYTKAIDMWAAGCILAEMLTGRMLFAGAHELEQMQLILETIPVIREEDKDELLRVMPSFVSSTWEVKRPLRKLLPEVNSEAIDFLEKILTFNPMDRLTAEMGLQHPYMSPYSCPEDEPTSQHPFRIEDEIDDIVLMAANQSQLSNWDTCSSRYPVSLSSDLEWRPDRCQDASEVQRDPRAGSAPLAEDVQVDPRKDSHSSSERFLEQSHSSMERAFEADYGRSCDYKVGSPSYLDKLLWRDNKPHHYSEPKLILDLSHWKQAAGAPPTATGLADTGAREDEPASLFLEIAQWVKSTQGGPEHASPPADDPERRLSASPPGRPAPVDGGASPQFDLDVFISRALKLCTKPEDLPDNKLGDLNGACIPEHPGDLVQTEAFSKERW
# UniProt P49137, whole entry, looked up: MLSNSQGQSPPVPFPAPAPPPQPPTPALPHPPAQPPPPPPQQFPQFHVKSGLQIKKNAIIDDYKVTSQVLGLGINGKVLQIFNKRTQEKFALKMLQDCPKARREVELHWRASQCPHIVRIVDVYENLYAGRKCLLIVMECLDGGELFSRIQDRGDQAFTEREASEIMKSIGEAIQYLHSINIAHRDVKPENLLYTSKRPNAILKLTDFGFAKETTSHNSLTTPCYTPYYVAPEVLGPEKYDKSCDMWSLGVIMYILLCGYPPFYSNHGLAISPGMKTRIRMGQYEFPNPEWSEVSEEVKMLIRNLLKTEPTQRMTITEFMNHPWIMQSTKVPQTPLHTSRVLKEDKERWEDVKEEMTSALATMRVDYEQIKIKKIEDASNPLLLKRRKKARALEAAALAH
# UniProt Q9BUB5: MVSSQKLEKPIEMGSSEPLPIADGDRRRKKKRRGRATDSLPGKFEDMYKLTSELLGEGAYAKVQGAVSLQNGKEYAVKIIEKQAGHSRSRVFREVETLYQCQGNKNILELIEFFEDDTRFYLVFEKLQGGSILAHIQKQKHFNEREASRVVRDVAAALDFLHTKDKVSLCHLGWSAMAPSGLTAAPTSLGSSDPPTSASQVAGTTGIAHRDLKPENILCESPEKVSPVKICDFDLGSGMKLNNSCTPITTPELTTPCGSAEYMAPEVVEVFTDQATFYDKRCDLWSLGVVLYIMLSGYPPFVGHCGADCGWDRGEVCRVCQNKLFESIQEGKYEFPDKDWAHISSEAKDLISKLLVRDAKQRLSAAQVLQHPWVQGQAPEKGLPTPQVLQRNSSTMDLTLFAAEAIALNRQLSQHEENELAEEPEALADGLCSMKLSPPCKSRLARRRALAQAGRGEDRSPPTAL
# UniProt Q16620, whole entry, looked up: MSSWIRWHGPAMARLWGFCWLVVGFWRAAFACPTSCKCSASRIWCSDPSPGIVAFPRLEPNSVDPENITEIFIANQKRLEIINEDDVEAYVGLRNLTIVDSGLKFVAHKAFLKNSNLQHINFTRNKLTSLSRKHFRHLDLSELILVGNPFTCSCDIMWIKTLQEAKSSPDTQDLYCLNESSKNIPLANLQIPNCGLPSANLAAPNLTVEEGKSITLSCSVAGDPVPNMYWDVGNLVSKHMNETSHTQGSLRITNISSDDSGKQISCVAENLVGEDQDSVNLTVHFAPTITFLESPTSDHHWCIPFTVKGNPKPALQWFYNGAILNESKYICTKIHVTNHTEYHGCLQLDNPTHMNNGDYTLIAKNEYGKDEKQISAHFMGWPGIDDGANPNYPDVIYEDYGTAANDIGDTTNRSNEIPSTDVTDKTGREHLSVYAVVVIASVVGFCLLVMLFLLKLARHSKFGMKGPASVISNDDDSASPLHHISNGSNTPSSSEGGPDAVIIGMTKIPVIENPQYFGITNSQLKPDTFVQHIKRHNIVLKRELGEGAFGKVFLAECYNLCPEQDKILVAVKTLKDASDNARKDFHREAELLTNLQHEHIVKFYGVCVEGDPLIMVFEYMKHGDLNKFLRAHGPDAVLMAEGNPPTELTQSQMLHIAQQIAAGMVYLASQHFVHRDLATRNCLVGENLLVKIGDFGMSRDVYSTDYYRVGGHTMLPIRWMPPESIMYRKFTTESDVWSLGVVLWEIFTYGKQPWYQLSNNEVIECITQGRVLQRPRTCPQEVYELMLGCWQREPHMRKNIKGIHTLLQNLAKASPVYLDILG
# UniProt Q16288, whole entry, looked up: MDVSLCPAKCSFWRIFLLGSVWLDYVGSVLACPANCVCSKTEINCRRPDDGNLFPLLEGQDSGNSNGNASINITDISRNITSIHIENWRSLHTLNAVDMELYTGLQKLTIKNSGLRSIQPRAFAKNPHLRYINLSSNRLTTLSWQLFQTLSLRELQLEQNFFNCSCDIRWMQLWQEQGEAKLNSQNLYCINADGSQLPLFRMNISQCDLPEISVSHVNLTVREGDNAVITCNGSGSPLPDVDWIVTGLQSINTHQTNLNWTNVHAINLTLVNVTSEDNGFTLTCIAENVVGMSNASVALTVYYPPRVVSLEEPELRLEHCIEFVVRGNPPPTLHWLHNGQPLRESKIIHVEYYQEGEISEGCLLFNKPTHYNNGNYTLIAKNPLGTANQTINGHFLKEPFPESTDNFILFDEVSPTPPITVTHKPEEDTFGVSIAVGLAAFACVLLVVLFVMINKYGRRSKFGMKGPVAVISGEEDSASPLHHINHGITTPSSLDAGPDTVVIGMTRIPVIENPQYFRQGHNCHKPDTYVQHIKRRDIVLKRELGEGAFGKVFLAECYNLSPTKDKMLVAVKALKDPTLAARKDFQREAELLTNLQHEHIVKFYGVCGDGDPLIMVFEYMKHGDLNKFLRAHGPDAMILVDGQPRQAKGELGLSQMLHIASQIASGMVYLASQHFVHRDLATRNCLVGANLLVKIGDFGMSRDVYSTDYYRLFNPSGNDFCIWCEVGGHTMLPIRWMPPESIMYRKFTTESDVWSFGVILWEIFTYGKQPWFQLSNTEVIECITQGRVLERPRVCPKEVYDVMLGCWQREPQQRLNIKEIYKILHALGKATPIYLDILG
# UniProt O96013: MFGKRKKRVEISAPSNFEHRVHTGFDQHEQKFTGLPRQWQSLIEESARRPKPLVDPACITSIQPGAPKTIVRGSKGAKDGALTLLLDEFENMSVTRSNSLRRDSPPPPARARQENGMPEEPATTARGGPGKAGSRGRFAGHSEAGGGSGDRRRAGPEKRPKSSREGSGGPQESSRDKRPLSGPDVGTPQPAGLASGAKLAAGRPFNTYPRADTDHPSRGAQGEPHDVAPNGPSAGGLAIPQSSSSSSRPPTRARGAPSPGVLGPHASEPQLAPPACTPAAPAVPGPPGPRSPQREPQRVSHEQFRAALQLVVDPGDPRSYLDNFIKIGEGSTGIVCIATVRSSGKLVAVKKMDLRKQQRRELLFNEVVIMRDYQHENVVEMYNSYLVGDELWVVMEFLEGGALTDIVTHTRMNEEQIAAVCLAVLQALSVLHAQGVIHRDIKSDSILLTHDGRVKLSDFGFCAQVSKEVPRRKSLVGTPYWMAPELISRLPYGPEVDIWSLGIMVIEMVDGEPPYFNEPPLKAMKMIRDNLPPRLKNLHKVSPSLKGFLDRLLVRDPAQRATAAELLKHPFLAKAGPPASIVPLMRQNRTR
# UniProt Q96KB5: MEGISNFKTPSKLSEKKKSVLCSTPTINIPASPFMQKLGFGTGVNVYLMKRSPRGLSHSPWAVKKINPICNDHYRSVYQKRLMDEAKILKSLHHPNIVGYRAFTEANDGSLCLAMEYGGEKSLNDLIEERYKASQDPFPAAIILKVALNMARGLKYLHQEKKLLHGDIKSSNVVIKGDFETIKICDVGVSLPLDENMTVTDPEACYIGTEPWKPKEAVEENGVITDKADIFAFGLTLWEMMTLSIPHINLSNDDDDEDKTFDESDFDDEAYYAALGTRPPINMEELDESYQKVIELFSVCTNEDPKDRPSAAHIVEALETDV
# UniProt P09619, whole entry: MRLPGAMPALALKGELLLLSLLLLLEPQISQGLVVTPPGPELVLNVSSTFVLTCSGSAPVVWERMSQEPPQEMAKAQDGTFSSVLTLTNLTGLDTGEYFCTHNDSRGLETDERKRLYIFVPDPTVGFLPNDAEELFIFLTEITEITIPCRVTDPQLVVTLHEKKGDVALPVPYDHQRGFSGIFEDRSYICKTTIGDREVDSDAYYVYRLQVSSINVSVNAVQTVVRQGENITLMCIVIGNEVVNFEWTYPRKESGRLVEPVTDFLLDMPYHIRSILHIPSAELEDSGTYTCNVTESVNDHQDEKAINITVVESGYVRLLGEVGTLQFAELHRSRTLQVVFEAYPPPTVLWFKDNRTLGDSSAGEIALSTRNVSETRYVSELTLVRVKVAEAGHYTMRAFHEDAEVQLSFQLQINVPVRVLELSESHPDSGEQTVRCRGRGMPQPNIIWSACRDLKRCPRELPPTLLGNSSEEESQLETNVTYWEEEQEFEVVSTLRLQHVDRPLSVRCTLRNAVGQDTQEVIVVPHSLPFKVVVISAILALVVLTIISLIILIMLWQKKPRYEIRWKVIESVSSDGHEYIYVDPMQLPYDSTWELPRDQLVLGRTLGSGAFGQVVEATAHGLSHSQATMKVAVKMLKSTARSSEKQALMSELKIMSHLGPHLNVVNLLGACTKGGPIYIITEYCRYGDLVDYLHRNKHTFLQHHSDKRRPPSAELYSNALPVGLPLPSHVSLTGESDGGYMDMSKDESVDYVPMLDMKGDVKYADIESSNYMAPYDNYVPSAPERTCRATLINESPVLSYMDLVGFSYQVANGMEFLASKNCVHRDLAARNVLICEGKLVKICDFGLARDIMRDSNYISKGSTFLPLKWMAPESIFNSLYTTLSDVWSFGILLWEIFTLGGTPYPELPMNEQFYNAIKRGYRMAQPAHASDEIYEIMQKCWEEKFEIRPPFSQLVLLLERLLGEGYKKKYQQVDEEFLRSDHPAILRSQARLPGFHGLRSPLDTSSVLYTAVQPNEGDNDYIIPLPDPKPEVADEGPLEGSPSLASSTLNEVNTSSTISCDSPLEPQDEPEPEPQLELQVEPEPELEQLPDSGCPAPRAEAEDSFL
# UniProt Q15118, whole entry, looked up: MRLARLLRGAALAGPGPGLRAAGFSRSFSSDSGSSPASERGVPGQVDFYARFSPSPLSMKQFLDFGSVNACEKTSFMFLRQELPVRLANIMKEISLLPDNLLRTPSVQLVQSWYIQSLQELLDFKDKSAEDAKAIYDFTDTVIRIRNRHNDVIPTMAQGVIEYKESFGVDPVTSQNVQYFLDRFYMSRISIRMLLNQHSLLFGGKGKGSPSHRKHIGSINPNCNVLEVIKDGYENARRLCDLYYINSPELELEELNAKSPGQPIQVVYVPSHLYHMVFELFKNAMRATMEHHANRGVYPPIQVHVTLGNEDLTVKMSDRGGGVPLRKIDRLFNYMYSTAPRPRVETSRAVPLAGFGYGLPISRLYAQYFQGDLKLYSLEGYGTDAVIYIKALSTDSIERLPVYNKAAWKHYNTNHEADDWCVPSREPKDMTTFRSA
# Where a name gives a salt, the structure may show the parent alone. The list shows a part of the results. The calls rarely recur for the same compound in another form.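 Kinases, fused to nanoluciferase, were expressed in K562 cells; luminescence was measured every 4 h from 2 to 18 h as percent of control (DMSO = 100%, positive control = 0%). A time point is decreased if signal falls significantly (2 sigma). Hits were called by the authors by a rule that is not shown; the count of time points alone does not decide it.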
# Key:
# Assay in all cases: kinase-Nluc reporter destabilization hit call (1 = scored as downregulated) (binary); higher = compound decreases kinase abundance
# Settings in all cases: K562; 2-18 h
# MAPK1 = MAPK1 (UniProt P28482)
# MAPK4 = MAPK4 (UniProt P31152)
# MAPKAPK2 = MAPKAPK2 (UniProt P49137)
# MKNK1 = MKNK1 (UniProt Q9BUB5)
# NTRK2 = NTRK2 (UniProt Q16620)
# NTRK3 = NTRK3 (UniProt Q16288)
# PAK4 = PAK4 (UniProt O96013)
# PBK = PBK (UniProt Q96KB5)
# PDGFRB = PDGFRB (UniProt P09619)
# PDK1 = PDK1 (UniProt Q15118)
SMILES,kinase-Nluc reporter destabilization hit call (MAPK1),kinase-Nluc reporter destabilization hit call (MAPK4),kinase-Nluc reporter destabilization hit call (MAPKAPK2),kinase-Nluc reporter destabilization hit call (MKNK1),kinase-Nluc reporter destabilization hit call (NTRK2),kinase-Nluc reporter destabilization hit call (NTRK3),kinase-Nluc reporter destabilization hit call (PAK4),kinase-Nluc reporter destabilization hit call (PBK),kinase-Nluc reporter destabilization hit call (PDGFRB),kinase-Nluc reporter destabilization hit call (PDK1)
O=C1O[C@H]([C@@H](O)CO)C(O)=C1OP(=O)(O)O [2-Phospho-L-ascorbic acid (trisodium)] (10 µM),inactive: 0,inactive: 0,inactive: 0,inactive: 0,inactive: 0,inactive: 0,inactive: 0,inactive: 0,inactive: 0,inactive: 0
CC(C)(C[C@H](N)C(=O)O)C(F)F [NV-5138 (hydrochloride)] (10 µM),inactive: 0,inactive: 0,inactive: 0,inactive: 0,inactive: 0,inactive: 0,inactive: 0,inactive: 0,inactive: 0,inactive: 0
CCc1ccc(OCC(=O)Nc2ccc(F)c([N+](=O)[O-])c2)cc1 (10 µM),inactive: 0,inactive: 0,inactive: 0,inactive: 0,inactive: 0,inactive: 0,inactive: 0,inactive: 0,inactive: 0,inactive: 0
C[C@@H]1CCNC(=O)c2cc3ccc(C(=O)Nc4nc5ccccc5n4CCCN(C)C)cc3n21 (10 µM),inactive: 0,inactive: 0,inactive: 0,inactive: 0,inactive: 0,inactive: 0,inactive: 0,inactive: 0,inactive: 0,inactive: 0
CC(C)CCNC(=O)c1ccc2c(c1)nc(Nc1n[nH]c3ccc(-c4ccccc4OC(F)(F)F)cc13)n2C1CCC(O)CC1 (stereo not drawn) [IRAK inhibitor 4 (trans)] (10 µM),inactive: 0,inactive: 0,inactive: 0,inactive: 0,inactive: 0,inactive: 0,inactive: 0,inactive: 0,inactive: 0,inactive: 0
COc1ncccc1-c1cnn2ccc(N3CCN(C(=O)OC(C)C)CC3)nc12 (10 µM),inactive: 0,inactive: 0,inactive: 0,inactive: 0,inactive: 0,inactive: 0,inactive: 0,inactive: 0,inactive: 0,inactive: 0
O=c1cc(N2CCOCC2)nc2c3ccccc3ccn12 [Compound 401] (10 µM),inactive: 0,inactive: 0,inactive: 0,inactive: 0,inactive: 0,inactive: 0,inactive: 0,inactive: 0,inactive: 0,inactive: 0
O=C(Nc1cccc(C(F)(F)F)c1)c1cccc2cc(Oc3cc(CO)ncn3)ccc12 (10 µM),inactive: 0,inactive: 0,inactive: 0,inactive: 0,inactive: 0,inactive: 0,inactive: 0,inactive: 0,inactive: 0,inactive: 0
C=CC(=O)N1CCC[C@H](n2c(=O)n(-c3ccc(Oc4ccccc4)cc3)c3c(N)ncnc32)C1 [ONO-4059 (analog)] (10 µM),inactive: 0,inactive: 0,inactive: 0,inactive: 0,inactive: 0,inactive: 0,inactive: 0,inactive: 0,inactive: 0,inactive: 0
C=CC(=O)Nc1cccc(CNc2nc(Nc3ccc(N4CCN(C)CC4)cc3OC)ncc2Cl)c1 (10 µM),inactive: 0,inactive: 0,inactive: 0,inactive: 0,inactive: 0,inactive: 0,inactive: 0,inactive: 0,inactive: 0,inactive: 0
O=C1NC(=O)C(c2cnc3ccccn23)=C1c1cn2c3c(cc(F)cc13)CNCC2 [GSK-3 inhibitor 1] (2.5 µM),inactive: 0,inactive: 0,inactive: 0,inactive: 0,inactive: 0,inactive: 0,inactive: 0,inactive: 0,inactive: 0,inactive: 0
Cc1cc(C)nc(NS(=O)(=O)c2ccc(NC(=S)NC(=O)COc3ccc(Br)cc3Cl)cc2)n1 (2.5 µM),inactive: 0,inactive: 0,inactive: 0,inactive: 0,inactive: 0,inactive: 0,inactive: 0,inactive: 0,inactive: 0,inactive: 0
C[C@H](Nc1ncnc2[nH]cnc12)c1cc2ccc(F)cc2nc1-c1ccccn1 (10 µM),inactive: 0,inactive: 0,inactive: 0,inactive: 0,inactive: 0,inactive: 0,inactive: 0,inactive: 0,inactive: 0,inactive: 0
Cc1cc(Nc2ncnc3ccc(-c4ccc(CNCCS(C)(=O)=O)o4)cc23)ccc1Oc1ccn2ncnc2c1 [ARRY-380 (analog )] (2.5 µM),inactive: 0,inactive: 0,inactive: 0,inactive: 0,inactive: 0,inactive: 0,inactive: 0,inactive: 0,inactive: 0,inactive: 0
CNc1nc(Nc2cn(C(C)(C)C#N)nc2C)ncc1C(F)(F)F (10 µM),inactive: 0,inactive: 0,inactive: 0,inactive: 0,inactive: 0,inactive: 0,inactive: 0,inactive: 0,inactive: 0,inactive: 0
N[C@@H](CCC(=O)O)C(=O)N[C@@H](Cc1c[nH]c2ccccc12)C(=O)O [Oglufanide] (10 µM),inactive: 0,inactive: 0,inactive: 0,inactive: 0,inactive: 0,inactive: 0,inactive: 0,inactive: 0,inactive: 0,inactive: 0
CN1CC[C@@H](c2c(O)cc(O)c3c(=O)cc(-c4ccc(C(F)(F)F)cc4Cl)oc23)[C@@H]1CO [Voruciclib (hydrochloride)] (10 µM),inactive: 0,inactive: 0,inactive: 0,inactive: 0,inactive: 0,inactive: 0,inactive: 0,inactive: 0,inactive: 0,inactive: 0

# Looked up above.
# kinase-Nluc reporter destabilization hit call (PBK), `C=CC(=O)Nc1cccc(CNc2nc(Nc3ccc(N4CCN(C)CC4)cc3OC)ncc2Cl)c1` (10 µM) is entered as inactive: 0
# kinase-Nluc reporter destabilization hit call (MAPKAPK2), `C[C@H](Nc1ncnc2[nH]cnc12)c1cc2ccc(F)cc2nc1-c1ccccn1` (10 µM) is entered as inactive: 0

# Remaining list, next part.

SMILES,kinase-Nluc reporter destabilization hit call (MAPK1),kinase-Nluc reporter destabilization hit call (MAPK4),kinase-Nluc reporter destabilization hit call (MAPKAPK2),kinase-Nluc reporter destabilization hit call (MKNK1),kinase-Nluc reporter destabilization hit call (NTRK2),kinase-Nluc reporter destabilization hit call (NTRK3),kinase-Nluc reporter destabilization hit call (PAK4),kinase-Nluc reporter destabilization hit call (PBK),kinase-Nluc reporter destabilization hit call (PDGFRB),kinase-Nluc reporter destabilization hit call (PDK1)
O=C1NC(=Nc2c(Cl)cccc2Cl)S/C1=C\c1ccc2nccnc2c1 (2.5 µM),inactive: 0,inactive: 0,inactive: 0,inactive: 0,inactive: 0,active: 1,inactive: 0,inactive: 0,inactive: 0,inactive: 0
COc1nn(C)cc1Nc1nccc(-c2c[nH]c3c(NC(=O)[C@@H](C)N4CCN(C)CC4)cccc23)n1 (10 µM),inactive: 0,inactive: 0,inactive: 0,inactive: 0,inactive: 0,inactive: 0,inactive: 0,inactive: 0,inactive: 0,inactive: 0
COc1ccccc1C(=O)/C=C/c1ccccc1C(=O)O (10 µM),inactive: 0,inactive: 0,inactive: 0,inactive: 0,inactive: 0,inactive: 0,inactive: 0,inactive: 0,inactive: 0,inactive: 0
Nc1cccc(-c2cc3c(Oc4cccc(O)c4)ncnc3[nH]2)c1 (10 µM),inactive: 0,inactive: 0,inactive: 0,inactive: 0,inactive: 0,inactive: 0,inactive: 0,inactive: 0,inactive: 0,inactive: 0
Cc1ccc(Oc2nc3cc(-c4ccc(-c5ccccc5)cc4)c(Cl)cc3[nH]2)cc1C(=O)O (10 µM),inactive: 0,inactive: 0,inactive: 0,inactive: 0,inactive: 0,inactive: 0,inactive: 0,inactive: 0,inactive: 0,inactive: 0
O=[N+]([O-])c1ccc2c(c1)S(=O)(=O)C=C2 [Stattic] (2.5 µM),inactive: 0,inactive: 0,inactive: 0,inactive: 0,inactive: 0,inactive: 0,inactive: 0,inactive: 0,inactive: 0,inactive: 0
Cc1nn(C)c2c1C(c1ccc(C(F)(F)F)cc1)C(C#N)=C(N)O2 (stereo not given) (10 µM),inactive: 0,inactive: 0,inactive: 0,inactive: 0,inactive: 0,inactive: 0,inactive: 0,inactive: 0,inactive: 0,inactive: 0
COc1ccc(-c2coc3cc(O)ccc3c2=O)cc1 [Formononetin] (10 µM),inactive: 0,inactive: 0,inactive: 0,inactive: 0,inactive: 0,inactive: 0,inactive: 0,inactive: 0,inactive: 0,inactive: 0
C=CC(=O)Nc1cc(Nc2nccc(-n3cc(CN(C)C)c(-c4ccccc4)n3)n2)c(OC)cc1N1CCOCC1 [Lazertinib] (10 µM),inactive: 0,inactive: 0,inactive: 0,inactive: 0,inactive: 0,inactive: 0,inactive: 0,inactive: 0,inactive: 0,inactive: 0
NC(=O)c1cnc2[nH]ccc2c1N[C@@H]1[C@@H]2CC3C[C@H]1C[C@@](O)(C3)C2 [Peficitinib] (10 µM),inactive: 0,inactive: 0,inactive: 0,inactive: 0,inactive: 0,inactive: 0,inactive: 0,inactive: 0,inactive: 0,inactive: 0
O=C(NCc1cccc(O)c1)Nc1nc(-c2ccncc2)cs1 (10 µM),inactive: 0,inactive: 0,inactive: 0,inactive: 0,inactive: 0,inactive: 0,inactive: 0,inactive: 0,inactive: 0,inactive: 0
Cc1ccc2c(Nc3cccc(Cl)c3F)nccc2c1NC(=O)c1csc2c(N)ncnc12 [Belvarafenib] (10 µM),inactive: 0,inactive: 0,inactive: 0,inactive: 0,inactive: 0,inactive: 0,inactive: 0,inactive: 0,inactive: 0,inactive: 0
Cn1cc(C2=C(c3cn(CCCSC(=N)N)c4ccccc34)C(=O)NC2=O)c2ccccc21 [Ro 31-8220 (mesylate)] (2.5 µM),inactive: 0,inactive: 0,inactive: 0,inactive: 0,inactive: 0,inactive: 0,inactive: 0,inactive: 0,inactive: 0,inactive: 0
COc1ccc2cc(-c3nc(-c4ccc([S+](C)[O-])cc4)[nH]c3-c3ccncc3)ccc2c1 (stereo not given) [Tie2 kinase inhibitor 1] (2.5 µM),inactive: 0,inactive: 0,inactive: 0,inactive: 0,inactive: 0,inactive: 0,inactive: 0,inactive: 0,inactive: 0,inactive: 0
C[C@@H]1O[C@@H](O[C@@H]2[C@@H](O)[C@H](OCCc3ccc(O)c(O)c3)O[C@H](CO)[C@H]2OC(=O)/C=C/c2ccc(O)c(O)c2)[C@H](O)[C@H](O)[C@H]1O [Verbascoside] (10 µM),inactive: 0,inactive: 0,inactive: 0,inactive: 0,inactive: 0,inactive: 0,inactive: 0,inactive: 0,inactive: 0,inactive: 0
Nc1nccc(Oc2ccc(NC(=O)c3c[nH]cc(-c4ccc(F)cc4)c3=O)cc2F)c1Cl (10 µM),inactive: 0,inactive: 0,inactive: 0,inactive: 0,inactive: 0,inactive: 0,inactive: 0,inactive: 0,inactive: 0,inactive: 0
